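Human melanoma cell lines in 1,536-well plates were treated with a pair of drugs for 72 h, then fixed, stained and imaged. Each value is the cleaved-PARP-positive fraction of nuclei relative to DMSO-treated wells, in %, so that 100 equals the control and higher values mean more apoptosis. Concentrations were fixed for each drug; these are the higher of two levels. No replicate spread is given; individual values may be noisy. Basal and induced levels differ widely between cell lines.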
Only some of the drugs and lines screened are listed, without regard to their results.
An entry leaves out what has no value listed here.

Drugs:
lenalidomide, 5 µM: Nc1cccc2c1CN(C1CCC(=O)NC1=O)C2=O (centres undefined)
midostaurin, 0.4 µM: CO[C@@H]1[C@H](N(C)C(=O)c2ccccc2)C[C@H]2O[C@]1(C)n1c3ccccc3c3c4c(c5c6ccccc6n2c5c31)C(=O)NC4
CHIR-265, 0.4 µM: Cn1c(Nc2ccc(C(F)(F)F)cc2)nc2cc(Oc3ccnc(-c4ncc(C(F)(F)F)[nH]4)c3)ccc21
IMD-0354, 0.08 µM: O=C(Nc1cc(C(F)(F)F)cc(C(F)(F)F)c1)c1cc(Cl)ccc1O
FH535, 5 µM: Cc1cc([N+](=O)[O-])ccc1NS(=O)(=O)c1cc(Cl)ccc1Cl
RKI-983, 2 µM: C[C@@H](N)c1ccc(C(=O)Nc2ccnc3[nH]ccc23)cc1
etoposide, 0.1 µM: COc1cc([C@@H]2c3cc4c(cc3[C@@H](O[C@@H]3O[C@@H]5CO[C@@H](C)O[C@H]5[C@H](O)[C@H]3O)[C@H]3COC(=O)[C@H]23)OCO4)cc(OC)c1O
stibogluconate, 10 µM: O=C(O)[C@@H]1[O][Sb](=[O])([O][Sb]2(=[O])[O][C@H]([C@H](O)CO)[C@H](O)[C@H](C(=O)O)[O]2)[O][C@H]([C@H](O)CO)[C@@H]1O (some centres undefined)

* midostaurin + etoposide | SK-MEL-28: 120; WM1716: 301; SK-MEL-5: 43.3
* lenalidomide + midostaurin | SK-MEL-28: 143; WM1716: 103; SK-MEL-5: 114
* etoposide + FH535 | SK-MEL-28: 98.4; 501mel: 70.7; WM1716: 137; SK-MEL-5: 44.9
* RKI-983 + midostaurin | SK-MEL-28: 291; WM1716: 724; SK-MEL-5: 228
* RKI-983 + IMD-0354 | SK-MEL-28: 41.4; WM1716: 477; SK-MEL-5: 216
* stibogluconate + FH535 | SK-MEL-28: 79.8; 501mel: 180; WM1716: 73.4; SK-MEL-5: 64.2
* etoposide + lenalidomide | SK-MEL-28: 84.6; WM1716: 63.4; SK-MEL-5: 217
* FH535 + midostaurin | SK-MEL-28: 128; 501mel: 181; WM1716: 467; SK-MEL-5: 206
* FH535 + RKI-983 | SK-MEL-28: 316; 501mel: 335; WM1716: 330; SK-MEL-5: 89.1
* FH535 + CHIR-265 | SK-MEL-28: 81.9; 501mel: 180; WM1716: 159; SK-MEL-5: 4680
* CHIR-265 + midostaurin | SK-MEL-28: 217; WM1716: 1070; SK-MEL-5: 3140
* stibogluconate + RKI-983 | SK-MEL-28: 218; WM1716: 219; SK-MEL-5: 180
* IMD-0354 + CHIR-265 | SK-MEL-28: 142; WM1716: 36.9; SK-MEL-5: 717
* CHIR-265 + RKI-983 | SK-MEL-28: 693; WM1716: 177; SK-MEL-5: 714
* lenalidomide + IMD-0354 | SK-MEL-28: 45.7; WM1716: 52.1; SK-MEL-5: 137
* stibogluconate + IMD-0354 | SK-MEL-28: 55.6; WM1716: 153; SK-MEL-5: 64.0
* stibogluconate + midostaurin | SK-MEL-28: 272; WM1716: 255; SK-MEL-5: 337
* FH535 + lenalidomide | SK-MEL-28: 60.5; 501mel: 91.4; WM1716: 125; SK-MEL-5: 161
* lenalidomide + CHIR-265 | SK-MEL-28: 255; WM1716: 65.2; SK-MEL-5: 1910
* etoposide + RKI-983 | SK-MEL-28: 81.7; WM1716: 242; SK-MEL-5: 223
* stibogluconate + etoposide | SK-MEL-28: 50.7; WM1716: 240; SK-MEL-5: 261
* CHIR-265 + stibogluconate | SK-MEL-28: 140; WM1716: 21.3; SK-MEL-5: 1200
* lenalidomide + RKI-983 | SK-MEL-28: 406; WM1716: 256; SK-MEL-5: 202
* stibogluconate + lenalidomide | SK-MEL-28: 56.7; WM1716: 36.1; SK-MEL-5: 94.1
* midostaurin + IMD-0354 | SK-MEL-28: 156; WM1716: 114; SK-MEL-5: 307
* IMD-0354 + FH535 | SK-MEL-28: 112; WM1716: 58.1; SK-MEL-5: 122
* etoposide + CHIR-265 | SK-MEL-28: 87.3; WM1716: 90.3; SK-MEL-5: 1610
* IMD-0354 + etoposide | SK-MEL-28: 261; WM1716: 152; SK-MEL-5: 68.0

For reference, 2 entries once more:

- RKI-983 + IMD-0354 | SK-MEL-28: 41.4; WM1716: 477; SK-MEL-5: 216
- FH535 + midostaurin | SK-MEL-28: 128; 501mel: 181; WM1716: 467; SK-MEL-5: 206

Data from the primary screen of doi:10.1371/journal.pone.0140310, rounded.